Some of the results follow. Further columns of the screen follow, without active or inactive calls. The list favours compounds with an active or inconclusive main result. The note in brackets gives the kind of curve behind each potency; many fits are weak.
Assay: qHTS Assay to Find Inhibitors of Chronic Active B-Cell Receptor Signaling
Settings: ABC-DLBCL IkBa-CBG/CBR reporter, luminescence ratio (green luciferase fused to IkBa over red control in TMD8 lymphoma cells), 4 h
Method in brief: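 Compounds up to 46 uM were incubated four hours with TMD8 cells whose green CBG68 luciferase is fused to IkappaBalpha; red CBR luminescence normalised the signal, and concentration-effect curves were fitted to fusion, red and ratio data.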

[1] = measured here: CBR red luminescence, cell number
[2] = measured here: IkBa-CBG green luminescence

| Compound | AC50 [1] | AC50 [2] |
| --- | --- | --- |
| O=C(/C=C/c1ccccc1Cl)NNC(=O)c1cccs1 | 10 µM [falling, partial curve] | – |
| O=C1/C(=C/N(C(=O)c2ccco2)c2ccc(Cl)cc2)Sc2ccccc21 | 14.6 µM [falling, partial curve] | – |
| Nc1cc(CN2C(=O)c3ccccc3C2=O)cc(Cl)c1O | 29.1 µM [falling, single point] | – |
| O=C(Cc1ccccc1)NCCCN1CCN(CCCNC(=O)Cc2ccccc2)CC1 | 23.1 µM [rising, single point] | – |
| CC(C)C(C(=O)NCc1ccco1)N(C(=O)CNS(=O)(=O)c1ccc(Cl)cc1)C1CCCC1 (stereo not given) | 18.4 µM [falling, partial curve, poor fit] | – |
| Cc1nnc2sc(SCC(=O)Nc3ccc(Cl)cc3)nn2c1=O | 35.5 µM [falling, single point] | – |
| N/C(=N\N=C\c1ccc2c(c1)OCO2)c1nonc1N | 10.3 µM [falling, partial curve, poor fit] | – |
| O=C1C2CCCCC2C(=O)N1c1ccc(NC2CCCCC2)c([N+](=O)[O-])c1 (stereo not given) | 14.6 µM [rising, partial curve, poor fit] | – |
| CCOC(=O)[C@H]1[C@H]2COc3ccccc3[C@@H]2N2C(=O)c3cc(Br)ccc3NC(=O)[C@@]12C | 32.6 µM [falling, single point] | 20.6 µM [rising, partial curve, poor fit] |
| O=C(NCc1ccco1)/C(=C/c1cccc(C(F)(F)F)c1)c1nc2ccccc2[nH]1 | – | 23.1 µM [rising, partial curve, poor fit] |
| O=C(O)c1cccc(N2CCCC2=O)c1 | 1.58 µM [rising, full curve, poor fit] | – |
| O=c1c2ccccc2ncn1/N=C/c1ccccc1 | 10 µM [falling, partial curve] | – |
| O=C(c1ccco1)N1CCN(C(=O)c2cc3cc([N+](=O)[O-])ccc3oc2=O)CC1 | 14.1 µM [rising, single point] | – |
| NS(=O)(=O)c1ccc(N/N=C/C=C/c2ccccc2[N+](=O)[O-])cc1 | 3.55 µM [falling, partial curve, poor fit] | – |
| COc1ccc(CC(=O)NNC(=O)c2cccs2)cc1OC | 14.1 µM [rising, partial curve, poor fit] | – |
| Cc1ccc(NC(=O)C(C)OC(=O)Cc2c[nH]c3ccccc23)cc1 (stereo not given) | 23.1 µM [falling, partial curve] | – |
| CCN(CC(=O)Nc1c(F)cccc1F)C(=O)c1ccc(C(F)(F)F)cc1 | 0.501 µM [falling, full curve, poor fit] | – |
| COc1ccc(NC(=O)c2sc3nc(N4CCOCC4)c4c(c3c2N)CC(C)(C)OC4)cc1 | 5.62 µM [rising, partial curve, poor fit] | – |
| O=C1/C(=C/c2cccc(Br)c2)SC(=S)N1/N=C/c1cc([N+](=O)[O-])ccc1O | 6.31 µM [falling, full curve, poor fit] | – |

Reprinted from the listing (two entries):

| Compound | AC50 [1] | AC50 [2] |
| --- | --- | --- |
| O=C(Cc1ccccc1)NCCCN1CCN(CCCNC(=O)Cc2ccccc2)CC1 | 23.1 µM [rising, single point] | – |
| CC(C)C(C(=O)NCc1ccco1)N(C(=O)CNS(=O)(=O)c1ccc(Cl)cc1)C1CCCC1 (stereo not given) | 18.4 µM [falling, partial curve, poor fit] | – |

Next part

| Compound | AC50 [1] | AC50 [2] |
| --- | --- | --- |
| C=CC[C@@H](CC(=O)NCCO)C(=O)N[C@@H](COC(=O)[C@@H](CC=C)CC(=O)OC(C)(C)C)Cc1c[nH]c2ccccc12 | 0.13 µM [rising, full curve, poor fit] | – |
| CN(C(=S)NC(=O)C12CC3CC(CC(C3)C1)C2)c1ccc(O)cc1 | 29.1 µM [rising, single point] | 32.6 µM [falling, partial curve, poor fit] |
| O=C(O)c1cccnc1SCc1cn2cc(Cl)ccc2n1 | 3.55 µM [falling, partial curve, poor fit] | – |
| Cc1ccc(S(=O)(=O)CC(=O)c2ccc([N+](=O)[O-])cc2)cc1 | 0.1 µM [rising, full curve, poor fit] | – |
| O=C(O)c1cccc(NCc2ccncc2)c1 | 5.8 µM [rising, partial curve, poor fit] | – |
| O=C(c1cc2cc(Cl)ccc2[nH]1)N1CCN(C(=O)c2ccco2)CC1 | 14.1 µM [falling, partial curve, poor fit] | – |
| Cc1nnnn1/C(=C\c1ccccc1)C(=O)OCC(=O)Nc1ccc(Cl)cc1F | 4.61 µM [falling, full curve, poor fit] | – |
| CCSc1nnc2c(n1)[nH]c1c(C)cccc12 | 3.16 µM [falling, partial curve, poor fit] | – |
| O=C(Nc1ccccc1)c1cc([N+](=O)[O-])ccc1NC1CCCCC1 | 29.1 µM [rising, single point] | – |
| Cc1ccc(-c2cc(-c3ccc(F)cc3)nc(N)c2C#N)o1 | 29.1 µM [falling, single point] | – |
| Cc1ccc(C2C(=O)N(C3CCCC3)CC(=O)N2C2CCCCC2)cc1 (stereo not given) | 0.00731 µM [falling, full curve, poor fit] | – |
| Cc1ccc(S(=O)(=O)N2CCN(C(=O)COC(=O)CCOc3ccc(C(C)(C)C)cc3)CC2)cc1 | 32.6 µM [falling, partial curve, poor fit] | – |
| CCC(=O)c1ccc(OCC(=O)Nc2ccccc2N2CCCCC2)cc1 | 0.708 µM [falling, full curve, poor fit] | – |
| CCOC(=O)[C@@H]1[C@H]2COc3ccc(Br)cc3[C@@H]2N2C(=O)N(c3ccc(C(F)(F)F)cc3)C(=O)[C@@]12C | 4.47 µM [falling, partial curve] | – |
| O=C(CN1CCc2cc3c(cc2C1)OCCCO3)Nc1ccccc1 | 11.2 µM [falling, partial curve] | – |
| O=C(N[C@@H](Cc1ccccc1)C(=O)CCl)OCc1ccccc1 | 8.2 µM [falling, partial curve] | – |
| CCOC(CNC(=O)c1cccn2c(=O)c3c(C)c(C)sc3nc12)OCC | 35.5 µM [falling, single point] | – |
| Cc1ccc(S(=O)(=O)CCSc2nc(C)cc(C(F)(F)F)c2C#N)cc1 | 14.6 µM [falling, partial curve] | – |
| O=C(Nc1cc(C(=O)N2CCN(c3ccccc3O)CC2)ccc1Cl)c1cccs1 | 29.1 µM [falling, single point] | – |

Reference: PubChem BioAssay AID493014 (National Center for Advancing Translational Sciences (NCATS), 2011)
